This assay has as its target myc-tagged Dictyostelium replacement Arp2 (Dictyostelium discoideum) (UniProt O96621). The assay can be described thus: co-IP; cleared cell lysates (50 mM Tris pH 8.0, 100 mM NaCl, 1 mM EDTA, 1% Triton X-100, protease inhibitors) incubated with mAb 9E10 anti-myc bound to protein G-sepharose, 1 hr at 4°C, 4 washes; blots probed with antibodies to Dictyostelium Arp2, Arp3 and p21-arc.

The chains behind the UniProt entries cited, without tags or fusion partners.
UniProt O96621: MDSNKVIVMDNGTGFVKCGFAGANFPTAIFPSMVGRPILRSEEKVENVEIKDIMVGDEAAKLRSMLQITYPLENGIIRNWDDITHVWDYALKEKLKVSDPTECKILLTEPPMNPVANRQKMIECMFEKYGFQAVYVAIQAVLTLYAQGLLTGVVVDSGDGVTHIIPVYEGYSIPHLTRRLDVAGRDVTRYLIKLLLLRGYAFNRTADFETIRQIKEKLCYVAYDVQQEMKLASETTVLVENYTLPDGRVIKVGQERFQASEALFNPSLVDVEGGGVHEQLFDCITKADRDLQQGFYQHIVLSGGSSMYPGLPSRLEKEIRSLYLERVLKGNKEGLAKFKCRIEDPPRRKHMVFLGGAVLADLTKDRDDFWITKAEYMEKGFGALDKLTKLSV
UniProt P42528: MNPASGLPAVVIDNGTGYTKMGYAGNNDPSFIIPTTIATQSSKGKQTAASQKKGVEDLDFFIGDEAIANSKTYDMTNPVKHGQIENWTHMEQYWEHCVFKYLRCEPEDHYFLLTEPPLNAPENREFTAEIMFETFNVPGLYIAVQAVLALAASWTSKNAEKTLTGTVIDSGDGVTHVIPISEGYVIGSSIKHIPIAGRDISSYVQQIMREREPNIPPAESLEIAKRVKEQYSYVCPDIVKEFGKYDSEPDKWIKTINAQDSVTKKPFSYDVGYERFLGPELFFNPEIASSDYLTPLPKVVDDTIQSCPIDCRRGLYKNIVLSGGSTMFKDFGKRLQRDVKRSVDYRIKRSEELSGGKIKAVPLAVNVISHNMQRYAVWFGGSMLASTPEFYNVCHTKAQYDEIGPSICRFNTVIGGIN

These are yes or no findings as the source states them, for the method shown. Binding seen in cells or lysates may run through a third protein. Some results given as binding are weak or reduced against the parent protein; the word gives no strength.

On to “Dictyostelium Arp3 (from UniProt P42528 1-418)”, for which the binding result is “binds”.

B1: Dictyostelium p21-arc subunit of the Arp2/3 complex (protein, UniProt O96624 1-174)
chain: MVYHSQFNDESAGFRLVGNVPILPLKTTHKGPAPKGDANSVDIIDEALDLFKANILFRNFEVQGNGDRVLIYLTLYITKCLLKIAPMNKADAEKALFLIAQEQFSIPGESAFPLGGLVTVPNTRDAADTLRQYFTQLRLELGVRLCQRVYAVDPSKANKWWICFSKRKFLNKAL
Regarding B1, the binding entry is given as “binds”.

(Values after article PMC1904233.)
